Drawing on the supplement of paper PMC11546906, this text covers OD600 for 18 molecules.

Where a name gives a salt, the structure may show the parent alone. Some of the results follow. Single values are uncertain here, since repeats match poorly.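 Screen of FDA-approved drugs, each combined with colistin at one-eighth of its MIC, against a multidrug-resistant mcr-1-positive clinical E. coli isolate; growth read as OD600 after 24 h. Bacteria without drug were the growth control and plain broth the blank. A combination counted as active when OD600 fell below 0.2.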

The test system of the experiment is Escherichia coli 42 (mcr-1-positive clinical isolate). Description: OD600 after 24 h growth with compound plus colistin (absorbance units (OD600)); higher = more bacterial growth (less inhibition). The settings on record: first compound 25 µM; colistin concentration 0.5 ug/mL; incubation time 24 h; 37 °C.

Regarding `CCN(CC)CCOc1ccc(C(=C(Cl)c2ccccc2)c2ccccc2)cc1` [Clomiphene citrate] + CCC(C)CCCC(=O)N[C@@H](CCN)C(=O)N[C@H](C(=O)N[C@@H](CCN)C(=O)N[C@H]1CCNC(=O)[C@H]([C@@H](C)O)NC(=O)[C@H](CCN)NC(=O)[C@H](CCN)NC(=O)[C@H](CC(C)C)NC(=O)[C@@H](CC(C)C)NC(=O)[C@H](CCN)NC1=O)[C@@H](C)O [colistin], the OD600 was active: 0.042.

In the case of `CS(=O)(=O)c1ccc(C2=C(c3ccccc3)C(=O)OC2)cc1` [Rofecoxib] + CCC(C)CCCC(=O)N[C@@H](CCN)C(=O)N[C@H](C(=O)N[C@@H](CCN)C(=O)N[C@H]1CCNC(=O)[C@H]([C@@H](C)O)NC(=O)[C@H](CCN)NC(=O)[C@H](CCN)NC(=O)[C@H](CC(C)C)NC(=O)[C@@H](CC(C)C)NC(=O)[C@H](CCN)NC1=O)[C@@H](C)O [colistin], the OD600 was inactive: 1.05.

In the case of `C[C@H]1O[C@H](O[C@H]2[C@H](O)[C@@H](O)[C@@H](O[C@@H]([C@H](O)[C@@H](O)C=O)[C@H](O)CO)O[C@@H]2CO)[C@H](O)[C@@H](O)[C@@H]1N[C@H]1C=C(CO)[C@@H](O)[C@H](O)[C@H]1O` [Acarbose] + CCC(C)CCCC(=O)N[C@@H](CCN)C(=O)N[C@H](C(=O)N[C@@H](CCN)C(=O)N[C@H]1CCNC(=O)[C@H]([C@@H](C)O)NC(=O)[C@H](CCN)NC(=O)[C@H](CCN)NC(=O)[C@H](CC(C)C)NC(=O)[C@@H](CC(C)C)NC(=O)[C@H](CCN)NC1=O)[C@@H](C)O [colistin], the OD600 was inactive: 1.07.

`Clc1ccc(CO/N=C(\Cn2ccnc2)c2ccc(Cl)cc2Cl)c(Cl)c1` [Oxiconazole nitrate] + CCC(C)CCCC(=O)N[C@@H](CCN)C(=O)N[C@H](C(=O)N[C@@H](CCN)C(=O)N[C@H]1CCNC(=O)[C@H]([C@@H](C)O)NC(=O)[C@H](CCN)NC(=O)[C@H](CCN)NC(=O)[C@H](CC(C)C)NC(=O)[C@@H](CC(C)C)NC(=O)[C@H](CCN)NC1=O)[C@@H](C)O [colistin]: the OD600 was active: 0.044.

As for `O=C(/C=C/n1cnc(-c2cc(C(F)(F)F)cc(C(F)(F)F)c2)n1)NNc1cnccn1` + CCC(C)CCCC(=O)N[C@@H](CCN)C(=O)N[C@H](C(=O)N[C@@H](CCN)C(=O)N[C@H]1CCNC(=O)[C@H]([C@@H](C)O)NC(=O)[C@H](CCN)NC(=O)[C@H](CCN)NC(=O)[C@H](CC(C)C)NC(=O)[C@@H](CC(C)C)NC(=O)[C@H](CCN)NC1=O)[C@@H](C)O [colistin], the OD600 is inactive: 0.941.

In the case of `COC(=O)[C@H]1[C@H]2C[C@@H]3c4[nH]c5cc(OC)ccc5c4CCN3C[C@H]2C[C@@H](OC(=O)c2cc(OC)c(OC)c(OC)c2)[C@@H]1OC` [Reserpine] + CCC(C)CCCC(=O)N[C@@H](CCN)C(=O)N[C@H](C(=O)N[C@@H](CCN)C(=O)N[C@H]1CCNC(=O)[C@H]([C@@H](C)O)NC(=O)[C@H](CCN)NC(=O)[C@H](CCN)NC(=O)[C@H](CC(C)C)NC(=O)[C@@H](CC(C)C)NC(=O)[C@H](CCN)NC1=O)[C@@H](C)O [colistin], the OD600 was inactive: 1.11.

In the case of `CS(=O)(=O)CCNCc1ccc(-c2ccc3ncnc(Nc4ccc(OCc5cccc(F)c5)c(Cl)c4)c3c2)o1` [Lapatinib] + CCC(C)CCCC(=O)N[C@@H](CCN)C(=O)N[C@H](C(=O)N[C@@H](CCN)C(=O)N[C@H]1CCNC(=O)[C@H]([C@@H](C)O)NC(=O)[C@H](CCN)NC(=O)[C@H](CCN)NC(=O)[C@H](CC(C)C)NC(=O)[C@@H](CC(C)C)NC(=O)[C@H](CCN)NC1=O)[C@@H](C)O [colistin], the OD600 is inactive: 0.911.

For `CCN(CC)CCNC(=O)c1c(C)[nH]c(/C=C2\C(=O)Nc3ccc(F)cc32)c1C` [Sunitinib] + CCC(C)CCCC(=O)N[C@@H](CCN)C(=O)N[C@H](C(=O)N[C@@H](CCN)C(=O)N[C@H]1CCNC(=O)[C@H]([C@@H](C)O)NC(=O)[C@H](CCN)NC(=O)[C@H](CCN)NC(=O)[C@H](CC(C)C)NC(=O)[C@@H](CC(C)C)NC(=O)[C@H](CCN)NC1=O)[C@@H](C)O [colistin], the OD600 is inactive: 0.843.

Turning to `COc1cccc2c1C(=O)c1c(O)c3c(c(O)c1C2=O)C[C@@](O)(C(=O)CO)C[C@@H]3O[C@H]1C[C@H](N)[C@H](O)[C@H](C)O1` [Doxorubicin hydrochloride] + CCC(C)CCCC(=O)N[C@@H](CCN)C(=O)N[C@H](C(=O)N[C@@H](CCN)C(=O)N[C@H]1CCNC(=O)[C@H]([C@@H](C)O)NC(=O)[C@H](CCN)NC(=O)[C@H](CCN)NC(=O)[C@H](CC(C)C)NC(=O)[C@@H](CC(C)C)NC(=O)[C@H](CCN)NC1=O)[C@@H](C)O [colistin], the OD600 is inactive: 0.981.

Take `NC[C@@H]1O[C@H](O[C@H]2[C@@H](O)[C@H](O[C@@H]3[C@@H](O)[C@H](N)C[C@H](N)[C@H]3O[C@H]3O[C@H](CN)[C@@H](O)[C@H](O)[C@H]3N)O[C@@H]2CO)[C@H](N)[C@@H](O)[C@@H]1O` [Framycetin sulfate] + CCC(C)CCCC(=O)N[C@@H](CCN)C(=O)N[C@H](C(=O)N[C@@H](CCN)C(=O)N[C@H]1CCNC(=O)[C@H]([C@@H](C)O)NC(=O)[C@H](CCN)NC(=O)[C@H](CCN)NC(=O)[C@H](CC(C)C)NC(=O)[C@@H](CC(C)C)NC(=O)[C@H](CCN)NC1=O)[C@@H](C)O [colistin]: the OD600 was inactive: 1.12.

With `COC(=O)C1=C(C)NC(C)=C(C(=O)OCC(C)C)C1c1ccccc1[N+](=O)[O-]` (stereo not drawn) [Nisoldipine] + CCC(C)CCCC(=O)N[C@@H](CCN)C(=O)N[C@H](C(=O)N[C@@H](CCN)C(=O)N[C@H]1CCNC(=O)[C@H]([C@@H](C)O)NC(=O)[C@H](CCN)NC(=O)[C@H](CCN)NC(=O)[C@H](CC(C)C)NC(=O)[C@@H](CC(C)C)NC(=O)[C@H](CCN)NC1=O)[C@@H](C)O [colistin], the OD600 is inactive: 1.02.

Regarding `CN(C)CCCN1c2ccccc2Sc2ccccc21` [Promazine hydrochloride] + CCC(C)CCCC(=O)N[C@@H](CCN)C(=O)N[C@H](C(=O)N[C@@H](CCN)C(=O)N[C@H]1CCNC(=O)[C@H]([C@@H](C)O)NC(=O)[C@H](CCN)NC(=O)[C@H](CCN)NC(=O)[C@H](CC(C)C)NC(=O)[C@@H](CC(C)C)NC(=O)[C@H](CCN)NC1=O)[C@@H](C)O [colistin], the OD600 was inactive: 1.29.

Regarding `N#Cc1ccc2[nH]cc(CCCCN3CCN(c4ccc5oc(C(N)=O)cc5c4)CC3)c2c1` [Vilazodone Hydrochloride] + CCC(C)CCCC(=O)N[C@@H](CCN)C(=O)N[C@H](C(=O)N[C@@H](CCN)C(=O)N[C@H]1CCNC(=O)[C@H]([C@@H](C)O)NC(=O)[C@H](CCN)NC(=O)[C@H](CCN)NC(=O)[C@H](CC(C)C)NC(=O)[C@@H](CC(C)C)NC(=O)[C@H](CCN)NC1=O)[C@@H](C)O [colistin], the OD600 was inactive: 1.03.

In the case of `CCOC(=O)[C@H](CCc1ccccc1)N[C@H]1CCc2ccccc2N(CC(=O)O)C1=O` [Benazepril hydrochloride] + CCC(C)CCCC(=O)N[C@@H](CCN)C(=O)N[C@H](C(=O)N[C@@H](CCN)C(=O)N[C@H]1CCNC(=O)[C@H]([C@@H](C)O)NC(=O)[C@H](CCN)NC(=O)[C@H](CCN)NC(=O)[C@H](CC(C)C)NC(=O)[C@@H](CC(C)C)NC(=O)[C@H](CCN)NC1=O)[C@@H](C)O [colistin], the OD600 is inactive: 0.935.

Take `CC(C)(O)c1ccccc1CC[C@@H](SCC1(CC(=O)O)CC1)c1cccc(/C=C/c2ccc3ccc(Cl)cc3n2)c1` [Montelukast sodium] + CCC(C)CCCC(=O)N[C@@H](CCN)C(=O)N[C@H](C(=O)N[C@@H](CCN)C(=O)N[C@H]1CCNC(=O)[C@H]([C@@H](C)O)NC(=O)[C@H](CCN)NC(=O)[C@H](CCN)NC(=O)[C@H](CC(C)C)NC(=O)[C@@H](CC(C)C)NC(=O)[C@H](CCN)NC1=O)[C@@H](C)O [colistin]: the OD600 was inactive: 1.04.

As to `CCC[C@@H]1C[C@@H](C(=O)N[C@@H]([C@H]2O[C@H](SC)[C@H](O)[C@@H](O)[C@H]2O)[C@@H](C)O)N(C)C1` [Lincomycin hydrochloride] + CCC(C)CCCC(=O)N[C@@H](CCN)C(=O)N[C@H](C(=O)N[C@@H](CCN)C(=O)N[C@H]1CCNC(=O)[C@H]([C@@H](C)O)NC(=O)[C@H](CCN)NC(=O)[C@H](CCN)NC(=O)[C@H](CC(C)C)NC(=O)[C@@H](CC(C)C)NC(=O)[C@H](CCN)NC1=O)[C@@H](C)O [colistin], the OD600 was inactive: 0.996.

On to `C[C@@](Cc1ccc(O)c(O)c1)(NN)C(=O)O` [Carbidopa monohydrate] + CCC(C)CCCC(=O)N[C@@H](CCN)C(=O)N[C@H](C(=O)N[C@@H](CCN)C(=O)N[C@H]1CCNC(=O)[C@H]([C@@H](C)O)NC(=O)[C@H](CCN)NC(=O)[C@H](CCN)NC(=O)[C@H](CC(C)C)NC(=O)[C@@H](CC(C)C)NC(=O)[C@H](CCN)NC1=O)[C@@H](C)O [colistin], for which the OD600 is inactive: 0.916.

With `Nc1ccc(S(=O)(=O)Nc2ccccn2)cc1` [Sulfapyridine] + CCC(C)CCCC(=O)N[C@@H](CCN)C(=O)N[C@H](C(=O)N[C@@H](CCN)C(=O)N[C@H]1CCNC(=O)[C@H]([C@@H](C)O)NC(=O)[C@H](CCN)NC(=O)[C@H](CCN)NC(=O)[C@H](CC(C)C)NC(=O)[C@@H](CC(C)C)NC(=O)[C@H](CCN)NC1=O)[C@@H](C)O [colistin], the OD600 was inactive: 1.11.
